From the supplement of paper PMC10849652
Some of the results follow.

Sequences of proteins named here, by UniProt entry; tags and fusion partners are left off. A change or cut given only in a name is not applied to a line headed by its entry.
UniProt Q7L590: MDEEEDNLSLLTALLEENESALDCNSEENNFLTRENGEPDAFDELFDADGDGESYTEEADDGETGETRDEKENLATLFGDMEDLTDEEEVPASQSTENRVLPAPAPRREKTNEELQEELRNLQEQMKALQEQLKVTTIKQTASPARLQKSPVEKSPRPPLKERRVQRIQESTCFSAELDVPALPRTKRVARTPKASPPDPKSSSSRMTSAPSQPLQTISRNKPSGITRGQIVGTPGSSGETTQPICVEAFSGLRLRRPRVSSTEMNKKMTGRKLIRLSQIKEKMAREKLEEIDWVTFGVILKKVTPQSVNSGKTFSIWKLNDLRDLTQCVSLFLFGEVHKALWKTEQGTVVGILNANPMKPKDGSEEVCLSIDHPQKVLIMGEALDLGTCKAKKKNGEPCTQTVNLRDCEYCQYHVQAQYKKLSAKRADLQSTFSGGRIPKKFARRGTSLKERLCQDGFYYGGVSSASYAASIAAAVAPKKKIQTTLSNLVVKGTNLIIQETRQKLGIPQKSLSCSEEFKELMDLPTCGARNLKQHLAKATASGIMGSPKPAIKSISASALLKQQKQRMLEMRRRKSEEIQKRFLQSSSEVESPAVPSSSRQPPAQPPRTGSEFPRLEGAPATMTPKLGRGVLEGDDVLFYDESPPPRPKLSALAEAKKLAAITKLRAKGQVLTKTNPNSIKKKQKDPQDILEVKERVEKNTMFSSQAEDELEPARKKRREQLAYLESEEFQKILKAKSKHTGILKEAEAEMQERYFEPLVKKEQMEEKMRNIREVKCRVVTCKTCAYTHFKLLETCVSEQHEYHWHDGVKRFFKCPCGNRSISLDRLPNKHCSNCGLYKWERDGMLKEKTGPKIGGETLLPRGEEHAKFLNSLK
UniProt Q02078: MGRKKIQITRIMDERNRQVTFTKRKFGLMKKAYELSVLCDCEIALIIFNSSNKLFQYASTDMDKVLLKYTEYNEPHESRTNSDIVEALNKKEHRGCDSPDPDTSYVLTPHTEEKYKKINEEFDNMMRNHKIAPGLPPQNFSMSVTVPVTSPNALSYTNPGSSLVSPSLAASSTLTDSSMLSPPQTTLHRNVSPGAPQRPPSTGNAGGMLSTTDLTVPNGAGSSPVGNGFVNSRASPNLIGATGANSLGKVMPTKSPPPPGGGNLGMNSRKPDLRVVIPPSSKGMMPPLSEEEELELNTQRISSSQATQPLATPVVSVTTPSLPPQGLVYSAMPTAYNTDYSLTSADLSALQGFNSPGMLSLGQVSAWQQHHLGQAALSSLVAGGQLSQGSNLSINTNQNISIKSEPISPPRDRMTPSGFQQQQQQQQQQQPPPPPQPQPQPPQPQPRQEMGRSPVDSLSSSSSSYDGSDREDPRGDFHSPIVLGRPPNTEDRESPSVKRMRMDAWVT
UniProt Q7Z434: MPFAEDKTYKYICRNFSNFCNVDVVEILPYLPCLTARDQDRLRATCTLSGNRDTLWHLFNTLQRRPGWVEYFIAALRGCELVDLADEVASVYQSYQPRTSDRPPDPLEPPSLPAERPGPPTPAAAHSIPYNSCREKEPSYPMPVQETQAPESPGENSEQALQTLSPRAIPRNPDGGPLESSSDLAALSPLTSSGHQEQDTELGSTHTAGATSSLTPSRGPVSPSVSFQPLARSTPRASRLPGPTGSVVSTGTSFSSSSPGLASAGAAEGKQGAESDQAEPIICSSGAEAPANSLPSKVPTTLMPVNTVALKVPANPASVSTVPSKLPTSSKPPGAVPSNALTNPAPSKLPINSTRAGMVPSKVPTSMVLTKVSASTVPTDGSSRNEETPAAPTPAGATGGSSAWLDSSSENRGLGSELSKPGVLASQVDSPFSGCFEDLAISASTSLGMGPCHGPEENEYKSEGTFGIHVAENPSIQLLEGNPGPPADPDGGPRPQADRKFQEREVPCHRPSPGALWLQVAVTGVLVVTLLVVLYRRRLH
UniProt Q6ZNC8: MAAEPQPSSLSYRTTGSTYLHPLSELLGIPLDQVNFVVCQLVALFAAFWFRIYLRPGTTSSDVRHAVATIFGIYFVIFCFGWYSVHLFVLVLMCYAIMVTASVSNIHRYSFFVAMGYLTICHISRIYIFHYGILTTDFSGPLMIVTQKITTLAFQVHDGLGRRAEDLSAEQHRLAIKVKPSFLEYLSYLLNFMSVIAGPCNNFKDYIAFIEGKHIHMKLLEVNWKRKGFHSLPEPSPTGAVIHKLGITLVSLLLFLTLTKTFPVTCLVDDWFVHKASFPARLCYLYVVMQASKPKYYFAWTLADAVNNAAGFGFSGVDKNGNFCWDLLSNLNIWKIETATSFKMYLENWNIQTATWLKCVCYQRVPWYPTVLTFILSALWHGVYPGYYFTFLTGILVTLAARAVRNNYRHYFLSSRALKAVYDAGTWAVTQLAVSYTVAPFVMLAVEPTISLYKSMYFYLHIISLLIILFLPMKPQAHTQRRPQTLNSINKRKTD
UniProt Q9H3U5: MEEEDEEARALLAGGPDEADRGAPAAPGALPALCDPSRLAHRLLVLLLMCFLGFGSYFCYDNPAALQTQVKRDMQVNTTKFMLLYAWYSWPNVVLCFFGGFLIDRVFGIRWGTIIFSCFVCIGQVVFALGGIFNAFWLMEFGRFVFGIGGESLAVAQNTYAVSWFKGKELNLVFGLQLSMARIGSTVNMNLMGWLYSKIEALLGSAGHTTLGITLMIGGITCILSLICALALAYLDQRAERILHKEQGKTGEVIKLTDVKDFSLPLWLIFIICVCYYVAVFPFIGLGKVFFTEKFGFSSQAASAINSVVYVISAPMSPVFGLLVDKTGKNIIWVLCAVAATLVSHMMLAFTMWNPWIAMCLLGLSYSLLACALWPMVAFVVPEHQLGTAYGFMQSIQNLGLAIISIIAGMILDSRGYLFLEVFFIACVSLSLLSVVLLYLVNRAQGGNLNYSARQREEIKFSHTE
UniProt Q86U44, whole entry, looked up: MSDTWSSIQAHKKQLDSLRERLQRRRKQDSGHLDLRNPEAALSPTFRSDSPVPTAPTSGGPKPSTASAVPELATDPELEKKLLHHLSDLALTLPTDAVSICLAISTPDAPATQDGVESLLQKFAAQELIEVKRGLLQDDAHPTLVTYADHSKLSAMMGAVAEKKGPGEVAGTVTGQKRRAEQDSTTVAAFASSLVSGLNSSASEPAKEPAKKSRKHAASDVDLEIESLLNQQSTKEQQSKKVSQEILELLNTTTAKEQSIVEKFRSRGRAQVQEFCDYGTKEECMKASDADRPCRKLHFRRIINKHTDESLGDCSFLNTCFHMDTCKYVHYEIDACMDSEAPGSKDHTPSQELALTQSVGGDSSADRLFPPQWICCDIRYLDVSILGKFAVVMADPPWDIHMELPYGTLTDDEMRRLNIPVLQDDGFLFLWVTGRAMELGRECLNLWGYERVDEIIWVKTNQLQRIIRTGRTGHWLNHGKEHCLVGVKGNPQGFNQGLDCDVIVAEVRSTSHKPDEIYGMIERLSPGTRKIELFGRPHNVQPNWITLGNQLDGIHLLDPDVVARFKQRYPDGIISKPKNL
UniProt P43243: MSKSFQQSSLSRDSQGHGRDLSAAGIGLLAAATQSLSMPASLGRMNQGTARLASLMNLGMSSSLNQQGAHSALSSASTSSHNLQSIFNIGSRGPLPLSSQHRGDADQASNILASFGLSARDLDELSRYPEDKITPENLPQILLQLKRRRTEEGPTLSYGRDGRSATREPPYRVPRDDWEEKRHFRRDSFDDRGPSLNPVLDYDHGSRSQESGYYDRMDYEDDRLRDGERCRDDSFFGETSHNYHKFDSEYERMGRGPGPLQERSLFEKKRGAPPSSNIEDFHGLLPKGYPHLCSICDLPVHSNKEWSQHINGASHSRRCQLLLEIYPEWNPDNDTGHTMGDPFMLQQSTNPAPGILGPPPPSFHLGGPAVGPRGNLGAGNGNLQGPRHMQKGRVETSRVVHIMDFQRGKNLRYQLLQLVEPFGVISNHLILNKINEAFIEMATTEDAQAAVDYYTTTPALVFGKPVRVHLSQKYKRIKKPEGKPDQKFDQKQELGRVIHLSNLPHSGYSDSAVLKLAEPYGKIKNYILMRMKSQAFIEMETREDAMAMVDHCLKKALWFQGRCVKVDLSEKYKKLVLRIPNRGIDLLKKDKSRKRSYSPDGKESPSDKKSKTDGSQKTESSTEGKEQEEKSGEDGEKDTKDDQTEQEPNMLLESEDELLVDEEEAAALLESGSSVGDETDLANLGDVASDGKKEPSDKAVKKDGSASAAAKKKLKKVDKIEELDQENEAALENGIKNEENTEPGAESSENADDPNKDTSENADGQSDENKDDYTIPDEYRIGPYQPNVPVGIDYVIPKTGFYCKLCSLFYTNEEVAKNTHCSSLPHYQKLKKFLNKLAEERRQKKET
UniProt Q9NPJ6: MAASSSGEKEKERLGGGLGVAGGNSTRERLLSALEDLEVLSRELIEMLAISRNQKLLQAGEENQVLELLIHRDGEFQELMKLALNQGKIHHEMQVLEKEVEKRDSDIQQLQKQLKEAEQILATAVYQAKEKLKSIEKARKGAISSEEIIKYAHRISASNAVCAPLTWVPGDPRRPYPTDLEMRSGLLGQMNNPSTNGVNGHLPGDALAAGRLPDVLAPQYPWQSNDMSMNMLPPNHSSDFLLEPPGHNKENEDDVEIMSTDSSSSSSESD
UniProt Q6P9B6: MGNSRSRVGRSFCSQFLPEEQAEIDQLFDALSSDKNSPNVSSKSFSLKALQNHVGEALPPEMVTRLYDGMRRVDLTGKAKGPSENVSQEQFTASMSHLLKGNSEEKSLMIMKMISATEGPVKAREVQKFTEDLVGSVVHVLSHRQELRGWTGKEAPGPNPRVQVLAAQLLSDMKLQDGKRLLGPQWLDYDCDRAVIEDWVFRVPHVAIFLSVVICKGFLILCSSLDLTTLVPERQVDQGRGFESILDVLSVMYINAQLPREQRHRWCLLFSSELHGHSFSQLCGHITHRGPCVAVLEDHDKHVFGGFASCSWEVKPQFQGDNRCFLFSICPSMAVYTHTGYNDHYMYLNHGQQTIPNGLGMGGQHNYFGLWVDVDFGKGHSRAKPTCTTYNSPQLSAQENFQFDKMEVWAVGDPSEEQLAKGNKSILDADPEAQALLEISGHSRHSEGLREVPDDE
UniProt Q16798: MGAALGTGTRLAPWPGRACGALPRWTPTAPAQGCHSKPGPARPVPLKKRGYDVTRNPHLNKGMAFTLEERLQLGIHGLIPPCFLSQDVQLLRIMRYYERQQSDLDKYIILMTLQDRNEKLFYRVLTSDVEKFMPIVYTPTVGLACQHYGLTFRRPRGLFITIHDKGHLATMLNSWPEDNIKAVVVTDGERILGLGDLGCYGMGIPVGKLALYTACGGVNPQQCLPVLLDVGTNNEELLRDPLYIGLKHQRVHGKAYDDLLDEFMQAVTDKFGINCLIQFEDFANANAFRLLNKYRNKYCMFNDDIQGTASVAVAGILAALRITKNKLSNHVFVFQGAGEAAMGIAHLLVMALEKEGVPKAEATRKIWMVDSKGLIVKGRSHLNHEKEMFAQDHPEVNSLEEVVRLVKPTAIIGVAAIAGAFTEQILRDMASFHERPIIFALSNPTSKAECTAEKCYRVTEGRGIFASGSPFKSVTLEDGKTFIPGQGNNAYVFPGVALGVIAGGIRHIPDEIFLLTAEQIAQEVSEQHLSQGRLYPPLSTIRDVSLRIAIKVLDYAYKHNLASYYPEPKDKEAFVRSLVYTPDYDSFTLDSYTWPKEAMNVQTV
UniProt P40925: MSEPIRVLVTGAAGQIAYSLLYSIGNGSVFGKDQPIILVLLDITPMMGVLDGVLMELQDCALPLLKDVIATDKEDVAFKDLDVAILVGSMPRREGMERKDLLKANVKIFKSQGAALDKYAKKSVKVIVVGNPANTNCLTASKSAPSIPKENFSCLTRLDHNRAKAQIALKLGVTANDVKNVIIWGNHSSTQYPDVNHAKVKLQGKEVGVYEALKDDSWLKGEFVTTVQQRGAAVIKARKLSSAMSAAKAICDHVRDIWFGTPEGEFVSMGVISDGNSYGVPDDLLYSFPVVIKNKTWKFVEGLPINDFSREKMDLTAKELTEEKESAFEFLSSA
UniProt P55081: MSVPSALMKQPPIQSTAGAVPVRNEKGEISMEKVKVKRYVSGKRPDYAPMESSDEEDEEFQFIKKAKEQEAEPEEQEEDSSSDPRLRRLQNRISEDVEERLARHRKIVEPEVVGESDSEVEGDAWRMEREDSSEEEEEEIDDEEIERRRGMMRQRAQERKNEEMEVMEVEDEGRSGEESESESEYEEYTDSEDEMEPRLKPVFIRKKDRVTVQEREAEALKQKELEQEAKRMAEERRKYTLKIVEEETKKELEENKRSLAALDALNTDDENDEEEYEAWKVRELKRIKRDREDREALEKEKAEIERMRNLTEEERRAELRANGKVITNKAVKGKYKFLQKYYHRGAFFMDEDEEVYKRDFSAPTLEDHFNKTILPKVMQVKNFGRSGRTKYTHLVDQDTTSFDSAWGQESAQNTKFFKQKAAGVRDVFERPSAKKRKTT

What was measured:
Test in all cases: log2 fold change, soluble protein after heating vs DMSO (PISA); higher = thermal stabilisation; K562 lysate, 10 uM; active = over 0.2 and 3.5 SD of the protein, either way, in both replicates (recomputed)
[1] = compound: C1=CC=C(C=C1)[C@H](COC2=CC3=C(C=C2)NC(=O)N3)NC(=O)C4=CC=CN(C4=O)CC5=CC(=C(C=C5)F)F
Method in brief: (§1)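 Dounce homogenisation of K562 pellets in PBS pH 7.4 with 1 mM MgCl2 produced a crude extract, used at 1 mg/mL protein. Exposure to 10 μM compound lasted 30 min, and aliquots were then heated for 3 min across 48°C-58°C, pooled and brought to 0.5% NP-40 at 4°C. The supernatant after 21,000xg for 90 min was quantified by TMTpro 16plex LC-MS/MS with channel sums equalised. Duplicate values are given as log-two fold change in thermal stability relative to solvent controls.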

[2] = compound: CC1=C(SC2=C1C(=N[C@H](C3=NN=C(N32)C)CC(=O)N)C4=CC=C(C=C4)Cl)C
Method in brief: as §1

[3] = compound: CC1=C2C(=CC=C1)N=C(N(C2=O)C3=CC=CC=C3C)CN4C=NC5=C(N=CN=C54)N
Method in brief: as §1

[4] = compound: Cc1sc2c(c1C)C(c1ccc(Cl)cc1)=N[C@@H](CC(=O)OC(C)(C)C)c1nnc(C)n1-2
Method in brief: as §1

[5] = compound: c1ccc([C@@H]2C[C@H]2NC2CCNCC2)cc1
Method in brief: as §1

Measured: log2 fold change

MED27 (UniProt Q6P2C8)
inactive: [1] 0.036 | [2] -0.01 | [3] 0.024 | [4] -0.049 | [5] 0.008

MCM10 (UniProt Q7L590)
inactive: [1] 0.005 | [2] 0.128 | [3] 0.011 | [4] -0.163 | [5] 0.03

MEF2A (UniProt Q02078)
inactive: [1] 0.015 | [2] 0.067 | [3] 0.035 | [4] -0.023 | [5] -0.035

MAVS (UniProt Q7Z434)
inactive: [1] -0.027 | [2] -0.014 | [3] -0.006 | [4] -0.016 | [5] -0.004

MBOAT1 (UniProt Q6ZNC8)
inactive: [1] 0.066 | [2] -0.045 | [3] -0.075

METTL25 (UniProt Q8N6Q8)
inactive: [1] 0.08 | [2] 0.031 | [3] -0.047 | [4] 0.014

MFSD1 isoform 6 (UniProt Q9H3U5)
inactive: [1] -0.143 | [2] 0.265 | [3] -0.175 | [4] 0.03 | [5] -0.037

METTL3 (UniProt Q86U44)
inactive: [1] 0.032 | [2] -0.024 | [3] -0.032 | [4] -0.005 | [5] 0.028

MCMBP isoform 2 (UniProt Q9BTE3)
inactive: [1] 0.045 | [2] 0.02 | [3] 0.007 | [4] 0.018

MFSD10 (UniProt Q14728)
inactive: [1] 0.029 | [2] -0.014 | [3] -0.093 | [4] -0.064 | [5] -0.104

MAT2B (UniProt Q9NZL9)
inactive: [1] -0.008 | [2] 0.014 | [3] -0.044 | [4] -0.003 | [5] -0.002

MCAM (UniProt P43121)
inactive: [1] -0.01 | [2] 0.012 | [3] 0.009 | [4] 0.007 | [5] -0.019

MFN1 (UniProt Q8IWA4)
inactive: [1] -0.097 | [2] 0.073 | [3] 0.004 | [4] 0.005 | [5] -0.077

MATR3 (UniProt P43243)
inactive: [1] 0.07 | [2] 0.038 | [3] -0.007 | [4] 0.034 | [5] -0.042

MED4 (UniProt Q9NPJ6)
inactive: [1] 0.026 | [2] -0.01 | [3] 0.006 | [4] -0.057 | [5] -0.029

MED15 (UniProt Q96RN5)
inactive: [1] -0.002 | [2] 0.043 | [3] 0.044 | [4] 0.001 | [5] 0.032

MEAK7 (UniProt Q6P9B6)
inactive: [1] -0.021 | [2] 0.057 | [3] 0.047 | [4] 0.012 | [5] 0.019

Fetched one by one from the entries so far, 2 records:
MATR3 (UniProt P43243)
inactive: [1] 0.07 | [2] 0.038 | [3] -0.007 | [4] 0.034 | [5] -0.042

MFN1 (UniProt Q8IWA4)
inactive: [1] -0.097 | [2] 0.073 | [3] 0.004 | [4] 0.005 | [5] -0.077

(further entries)

ME3 (UniProt Q16798)
inactive: [1] 0.023 | [2] 0.031 | [3] 0.054 | [4] -0.184 | [5] -0.154

MFSD5 isoform 2 (UniProt Q6N075)
inactive: [1] 0.016 | [2] 0.026 | [3] -0.002 | [4] -0.088 | [5] -0.162

METTL1 (UniProt Q9UBP6)
inactive: [1] 0.046 | [2] -0.007 | [3] 0.044 | [4] 0.025 | [5] 0.018

MDH1 isoform 3 (UniProt P40925)
inactive: [1] 0 | [2] 0.011 | [3] -0.007 | [4] 0.001 | [5] 0.005

MFAP1 (UniProt P55081)
inactive: [1] 0.053 | [2] -0.011 | [3] -0.039 | [4] 0.018 | [5] -0.058

MDN1 (UniProt Q9NU22)
inactive: [1] -0.025 | [2] 0.03 | [3] 0.05 | [4] -0.037 | [5] -0.056

MESD (UniProt Q14696)
inactive: [1] 0.018 | [2] -0.012 | [3] -0.038 | [4] -0.058 | [5] -0.018

MCUR1 (UniProt Q96AQ8)
inactive: [1] 0.002 | [2] -0.004 | [3] -0.005 | [4] -0.068 | [5] 0.01
